SMILES strings stand for the structures. The list does not hold the whole screen: it is rich in T/C values a quarter to a half above the control, in often repeated tests (any T/C) and in doses without a T/C. Further doses and runs are listed elsewhere. T/C: endpoint of the treated group in % of that of the vehicle group. Some entries give survivors of the animals treated and no T/C: the source holds a T/C of zero for them, seemingly a mark for toxic or unscored doses. Some doses without a T/C left all or most animals alive at the check, yet need not have been tolerated: survival well below the control is almost never listed, so the zero probably covers shortened survival too. Survivors were counted at the toxicity check, usually on the fifth day, unless a day is given; later deaths do not show. Schedule codes are those of the source, read here as Q, the interval in days (D) or hours (H), X, the number of doses. For survival time, the PubChem record calls one and a half times the control and up active, and a quarter to a half above the control has no call in these data; cut-offs in other NCI protocols can differ.

This experiment relates to P388 leukemia ip, CD2F1 mice, survival T/C. Kind of experiment: NCI In Vivo Anticancer Drug Screen. Data for tumor model P388 Leukemia (intraperitoneal) in CD2F1 (CDF1) mice. Conditions: T/C endpoint: median survival time, higher T/C = longer survival.

`CCn1c(=O)c2[nH]c(SC)nc2n(CC)c1=O`: under “dose: 400.0 mg/kg/injection, schedule: Q01DX009 (ip), vehicle: Klucel (hydroxypropylcellulose) (HPC)”, the survivor count is recorded as 0 of 6.

Turning to `COc1cc(/C=C/C2=C(C)C(=O)CC(c3cc(OC)c(OC)c(OC)c3)C2C)cc(OC)c1OC` (centres undefined), the survivor count reads like this: (dose: 100.0 mg/kg/injection, schedule: Q04DX003 (ip), vehicle: Klucel (hydroxypropylcellulose) (HPC)) 6 of 6; (dose: 200.0 mg/kg/injection, schedule: Q04DX003 (ip), vehicle: Klucel (hydroxypropylcellulose) (HPC)) 6 of 6; (dose: 400.0 mg/kg/injection, schedule: Q04DX003 (ip), vehicle: Klucel (hydroxypropylcellulose) (HPC)) 6 of 6.

`COc1ccc(C)c2c(NCCCCCCCCNc3c4ccccc4nc4c(OC)ccc(C)c34)c3ccccc3nc12`: the survivor count was 3 of 6 (dose: 20.0 mg/kg/injection, schedule: Q01DX009 (ip), vehicle: water) and 0 of 6 (dose: 40.0 mg/kg/injection, schedule: Q01DX009 (ip), vehicle: water).

Consider `[Cl][Pt+2][Cl].[NH-]CC1(C[NH-])CCC1`, for which the T/C was 129 % of control (dose: 0.19 mg/kg/injection, schedule: Q01DX009 (ip), vehicle: suspension in saline); 148 % of control (dose: 0.75 mg/kg/injection, schedule: Q01DX005 (ip), vehicle: saline); 147 % of control (dose: 0.75 mg/kg/injection, schedule: Q01DX005 (ip), vehicle: suspension in saline); 133 % of control (dose: 0.75 mg/kg/injection, schedule: Q01DX009 (ip), vehicle: saline). The survivor count by setting is: (dose: 12.0 mg/kg/injection, schedule: Q01DX005 (ip), vehicle: saline) 5 of 5; (dose: 12.0 mg/kg/injection, schedule: Q01DX009 (ip), vehicle: saline) 5 of 5.

Regarding `O=[N+]([O-])c1cccc(N/N=C\c2c(Cl)[nH]c3ccccc23)c1`, the survivor count is, setting by setting: (dose: 200.0 mg/kg/injection, schedule: Q01DX001 (ip), vehicle: Klucel (hydroxypropylcellulose) (HPC)) 6 of 6; (dose: 400.0 mg/kg/injection, schedule: Q01DX001 (ip), vehicle: Klucel (hydroxypropylcellulose) (HPC)) 6 of 6.

As for `NC(=O)/C=C/C(N)=O`, the survivor count (dose: 400.0 mg/kg/injection, schedule: Q04DX003 (ip), vehicle: saline with Tween-80) is 3 of 6.

Regarding `O=C(Oc1ccc[nH]c1=O)c1ccccc1`, the survivor count (dose: 150.0 mg/kg/injection, schedule: Q01DX009 (ip), vehicle: saline) is reported as 4 of 6.

As to `Clc1ccc2c(c1)CN1Cc3cc(Cl)ccc3C2C1`, the survivor count (dose: 200.0 mg/kg/injection, schedule: Q01DX001 (ip), vehicle: saline with Tween-80) is given as 5 of 6.

`CN1CCCc2cc(/C=C\c3ccnc4ccccc34)ccc21`: the T/C (dose: 100.0 mg/kg/injection, schedule: Q01DX009 (ip), vehicle: Klucel (hydroxypropylcellulose) (HPC)) was 139 % of control.

Take `COC(=O)C(C#N)=C(Cl)Cl`: the survivor count was 6 of 6 (dose: 6.25 mg/kg/injection, schedule: Q01DX005 (ip), vehicle: Klucel (hydroxypropylcellulose) (HPC)); 0 of 6 (dose: 12.5 mg/kg/injection, schedule: Q01DX005 (ip), vehicle: Klucel (hydroxypropylcellulose) (HPC)); 0 of 6 (dose: 25.0 mg/kg/injection, schedule: Q01DX005 (ip), vehicle: Klucel (hydroxypropylcellulose) (HPC)); 0 of 6 (dose: 50.0 mg/kg/injection, schedule: Q01DX005 (ip), vehicle: Klucel (hydroxypropylcellulose) (HPC)); 0 of 6 (dose: 100.0 mg/kg/injection, schedule: Q01DX005 (ip), vehicle: Klucel (hydroxypropylcellulose) (HPC)); 0 of 6 (dose: 200.0 mg/kg/injection, schedule: Q01DX005 (ip), vehicle: Klucel (hydroxypropylcellulose) (HPC)).

Values taken from PubChem BioAssay AID330 (DTP/NCI, 2004).
